Experimental data as given in the supplement of paper PMC10338343.
± gives the standard deviation. This is a selection; strong and weak results do not stand in their true shares. Many entries were measured with a wide error.

What follows are sequences tested on EfPiwi piRISC loaded with piRNA #1 (26 nt) (assay: pre-steady-state target cleavage rate (min^-1); guide: piRNA #1 5'p-UGAGGUAGUAGGUUGUAUAGUAUCCA; MIWI and MILI are mouse PIWI proteins and EfPiwi is from a freshwater sponge; tags in brackets are library labels; higher = faster piRNA-guided slicing of the target). Details: auxiliary factor: 500 nM Ephydatia muelleri Gtsf1.
How it was run: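 Using HEPES–potassium acetate buffer at 33 °C, 1 nM active affinity-purified piRISC with a single synthetic guide was mixed with 0.1 nM transcribed, DNA-blocked target RNA library for 0–8 or 0–960 min, with or without 500 nM GTSF1 partner protein. Uncleaved targets were sequenced and normalised to depth and to weakly complementary targets, and three trials were pooled with k3 capped at 0.0001 min^-1. A burst-and-steady-state fit gave the pre-steady-state cleavage rate.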

Sequence | pre-steady-state target cleavage rate
GGAGUGGUUACUAUAGAACCUACUACCUCA | 0.00192 ± 0.002
GGAGUGGAUACUAUACAACGAACUACCUCA | 0.00257 ± 0.0018
GGAGACCUUACUUUACAACCUACUACCUGA | 0.00277 ± 0.0039
GGAGACCUAUGUUUACAACCUACUACGUCA | 0.00132 ± 0.0044
GGAGUGGAUACUAUACAUCCUACUUCCUCA | 0.00326 ± 0.0017
GGAGACCUAUGAUAUGUUGCAACUACCUCA | 0.000472 ± 0.0077
GGAGACCUAUCUAUACAACCUACUUCGUCA | 0.00161 ± 0.0053
GGAGACCUAUCUAUACAACCUACUACCUCU [g2:g20:cont:t1U] | 0.993 ± 0.45
GGAGUGGAUACUAUACAUGGUACUACCUCA | 0.00303 ± 0.0028
GGAGAGGAUACUAUACAACCUACUUCCUCA | 0.00514 ± 0.0026
GGAGAGCAUACUAUACAACCUACUACCUCA | 0.0285 ± 0.012
GGAGACGAUACGUAUACAACCUACUACCUCA | 0.00952 ± 0.0048
GGAGACCUAUCUAUACAACCUACAACGUCA | 0.0012 ± 0.0052
GGAGACCUAUGAUAUGAACUACUACCUCA | 0.000221 ± 0.0087
GGAGACGAUACAAUACAACCUACUACCUGA | 0.0025 ± 0.0015
GGAGACGUACUAUACAACCUACUACCUCA | 0.0561 ± 0.022

Some of the entries so far, in markdown.

| Sequence | pre-steady-state target cleavage rate |
| --- | --- |
| GGAGACCUAUGAUAUGUUGCAACUACCUCA | 0.000472 ± 0.0077 |
| GGAGACCUAUCUAUACAACCUACUUCGUCA | 0.00161 ± 0.0053 |
